The exact form of at least one protein or probe is not confirmed. Results from cells or extracts need not show a direct contact. The comparison behind a weaker result is the experiment's own reference, which may not be listed here.
Tested on: RNA polymerase II (endogenous)
Assay: pull-down
Details: Pull-down: 100-250 pmole probe on M-280 streptavidin Dynabeads, 100-250 ug nuclear extract, 2.5 ug salmon sperm DNA, 1 h room temperature, washes with 0.5% NP-40, protein in an extract, label: 5'-biotin

GAGCGCCTCCTTAAAGCCCCCACAA (double strand) [MMP9 TATA WT]
binding result (HOXA2-expressing HK1 extract): binds more weakly | binding result (vector HK1 extract): binds

Source: article PMC3875777
